# Measurements reported in PubChem BioAssay AID1259308 (NCATS, 2017).
# Assay: 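Knock-downs that increase output of a recombinant reporter protein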 (primary screen)
# System: human HEK293 embryonic kidney cells stably expressing firefly luciferase (HEK-CMV-Luc2-Hygro)
# Reagent: single siRNA against human genes, 0.8 pmol siRNA per well
# Time to read-out: 72 h
# Measurement: 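Luciferase light (ONE-Glo) measured on one replicate plate set and viability (CellTiter-Glo) on the other, scaled to a negative control siRNA, with robust z-scores and luciferase per cell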
# Scale: total luciferase, z-score and total luciferase, % of control: higher = more reporter protein produced; luciferase per cell, z-score: higher = more reporter output per viable cell; viable cells, % of control: higher = more viable cells
# Rule for the call: 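Active when the median/MAD z-score for overall luciferase is greater than 3; a gene was taken forward for validation with new siRNAs if at least two of its three siRNAs passed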
# Meaning of the calls: active = raised luciferase; inactive = no rise
# The whole screen tested about 59,000 reagents; this is a part drawn at random. In the full data, about 1,510 (2.6%) were called active. 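Calls use total luciferase alone and ignore viability, so some active siRNAs may act by altering cell number.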 Reagents against one gene are numbered here.
Gene,siRNA no.,"total luciferase, z-score","total luciferase, % of control","luciferase per cell, z-score","viable cells, % of control",outcome
TMEM68 (transmembrane protein 68),1,0.449,90.8,-0.146,105,inactive
TMEM68 (transmembrane protein 68),2,-0.737,67.2,-0.543,86.7,inactive
TMEM68 (transmembrane protein 68),3,0.832,98.4,-0.0687,112,inactive
RD3 (RD3 regulator of GUCY2D),1,-0.345,75,0.41,75.3,inactive
RD3 (RD3 regulator of GUCY2D),2,-0.809,65.8,-0.659,87.5,inactive
RD3 (RD3 regulator of GUCY2D),3,-0.589,70.2,-0.797,96.7,inactive
SLC40A1,1,-0.233,77.3,-0.505,98.6,inactive
SLC40A1,2,3.31,148,1.99,97.7,active
SLC40A1,3,0.469,91.2,0.201,96.7,inactive
LITATS1,1,-0.0305,81.3,-0.723,110,inactive
LITATS1,2,-1.33,55.4,-0.338,67.6,inactive
LITATS1,3,1.15,105,1.5,78.9,inactive
URB2 (URB2 ribosome biogenesis homolog),1,-0.0138,81.6,-0.222,96.7,inactive
URB2 (URB2 ribosome biogenesis homolog),2,-0.115,79.6,-0.288,96,inactive
URB2 (URB2 ribosome biogenesis homolog),3,1.99,121,1.5,91.5,inactive
"NF2 (NF2, moesin-ezrin-radixin like (MERLIN) tumor suppressor)",1,0.935,100,0.974,86.9,inactive
"NF2 (NF2, moesin-ezrin-radixin like (MERLIN) tumor suppressor)",2,-0.264,76.6,-0.374,94.5,inactive
"NF2 (NF2, moesin-ezrin-radixin like (MERLIN) tumor suppressor)",3,0.65,94.8,1.48,71.8,inactive
TCAP (titin-cap),1,0.475,91.3,-0.369,112,inactive
TCAP (titin-cap),2,-0.477,72.4,0.531,70.3,inactive
TCAP (titin-cap),3,1.13,104,0.208,110,inactive
NEK10 (NIMA related kinase 10),1,0.122,84.3,-0.282,101,inactive
NEK10 (NIMA related kinase 10),2,-0.337,75.2,-0.67,100,inactive
NEK10 (NIMA related kinase 10),3,0.334,88.5,0.608,84.3,inactive

Entries listed so far whose gene name begins with L or l:
Gene,siRNA no.,"total luciferase, z-score","total luciferase, % of control","luciferase per cell, z-score","viable cells, % of control",outcome
LITATS1,1,-0.0305,81.3,-0.723,110,inactive
LITATS1,2,-1.33,55.4,-0.338,67.6,inactive
LITATS1,3,1.15,105,1.5,78.9,inactive
